No constants are given. Whether binding was seen depends on the method and setting. Binding seen in cells or lysates may run through a third protein. Some entries that bind do so weakly or less than the wild type. For some of these results: Where a sequence is shown, tags or fusion partners need not be part of it. Each block holds one substance with its values, some of them ahead of it.
Assays:
[1] = biological target: T1, Myc-CUL3 (Arabidopsis thaliana, UniProt Q9ZVH4 1-732); assay: co-IP, N. benthamiana
T1 construct: also called AtCUL3A (AT1G26830); not shown: N-terminal Myc tag (pEG203)
T1 sequence (looked up): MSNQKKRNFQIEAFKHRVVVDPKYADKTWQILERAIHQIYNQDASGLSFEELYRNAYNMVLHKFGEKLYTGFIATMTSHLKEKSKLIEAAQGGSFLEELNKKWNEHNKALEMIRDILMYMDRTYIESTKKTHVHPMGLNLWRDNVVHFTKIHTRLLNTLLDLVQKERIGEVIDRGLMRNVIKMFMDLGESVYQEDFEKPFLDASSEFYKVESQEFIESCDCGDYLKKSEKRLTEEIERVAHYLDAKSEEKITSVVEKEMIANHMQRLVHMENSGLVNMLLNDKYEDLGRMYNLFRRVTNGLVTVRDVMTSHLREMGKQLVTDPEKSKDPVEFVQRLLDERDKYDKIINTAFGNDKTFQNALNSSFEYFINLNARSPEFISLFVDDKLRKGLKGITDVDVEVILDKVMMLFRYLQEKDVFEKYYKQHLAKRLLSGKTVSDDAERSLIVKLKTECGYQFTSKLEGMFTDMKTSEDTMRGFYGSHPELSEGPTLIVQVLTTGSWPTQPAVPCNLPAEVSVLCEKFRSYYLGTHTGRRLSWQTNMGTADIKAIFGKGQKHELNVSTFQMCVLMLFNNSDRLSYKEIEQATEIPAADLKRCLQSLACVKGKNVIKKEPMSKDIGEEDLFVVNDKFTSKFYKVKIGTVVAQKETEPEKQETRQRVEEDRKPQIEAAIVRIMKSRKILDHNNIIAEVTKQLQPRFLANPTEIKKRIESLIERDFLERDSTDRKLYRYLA

By UniProt entry, the sequences of proteins in these tests, tags left out. Where a name states a change or a piece, a line headed by the entry shows the natural chain unless it says otherwise.
UniProt P93002: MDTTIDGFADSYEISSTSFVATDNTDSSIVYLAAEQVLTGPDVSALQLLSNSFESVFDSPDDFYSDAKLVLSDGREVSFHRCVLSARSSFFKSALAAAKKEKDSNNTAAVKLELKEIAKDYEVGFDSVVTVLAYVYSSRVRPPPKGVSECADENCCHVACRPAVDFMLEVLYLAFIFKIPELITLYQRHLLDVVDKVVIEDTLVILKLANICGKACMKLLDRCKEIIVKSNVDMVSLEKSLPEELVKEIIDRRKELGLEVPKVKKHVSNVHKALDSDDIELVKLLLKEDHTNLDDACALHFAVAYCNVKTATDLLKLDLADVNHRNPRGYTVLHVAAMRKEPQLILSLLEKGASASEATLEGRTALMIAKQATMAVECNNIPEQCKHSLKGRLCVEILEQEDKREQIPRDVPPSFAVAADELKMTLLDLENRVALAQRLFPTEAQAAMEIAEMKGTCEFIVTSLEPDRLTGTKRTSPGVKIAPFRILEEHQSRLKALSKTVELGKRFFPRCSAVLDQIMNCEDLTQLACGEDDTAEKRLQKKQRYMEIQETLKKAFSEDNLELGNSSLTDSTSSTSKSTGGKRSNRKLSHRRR

[2] = biological target: BTB-HA (Arabidopsis thaliana) (UniProt P93002); assay: co-IP, co-expression in N. benthamiana
[3] = biological target: T1, Myc-CUL3; assay: GST pull-down, co-expression in E. coli
[4] = biological target: T2, endogenous CUL3 in Arabidopsis (Arabidopsis thaliana) (UniProt Q9ZVH4); assay: co-IP from transgenic Arabidopsis
T2 sequence (looked up): T1 sequence (looked up)

[5] = biological target: T1, Myc-CUL3; assay: co-IP, N. benthamiana, 1 mM SA
[6] = biological target: T2, endogenous CUL3 in Arabidopsis (Arabidopsis thaliana); assay: co-IP from transgenic Arabidopsis (FIG. 4B)

Substance: CTD-GFP (from UniProt P93002 365-593)
binding [2]: binds

Substance: NPR1-GFP (from UniProt P93002 1-593)
binding [4]: binds

Substance: sim3-GFP (from UniProt P93002 1-593)
binding [6]: binds

Substance: ΔCTD-HA (from UniProt P93002 1-364)
binding [1]: binds

The next lines start with the values.

binding [1]: binds
Substance: BTB-HA (from UniProt P93002 65-144)

binding [3]: binds
Substance: GST-NPR1 (from UniProt P93002 1-593)

binding [5]: binds
Substance: nls-HA (from UniProt P93002 1-593)
